# Measured values reported in PubChem BioAssay AID445 (National Center for Advancing Translational Sciences (NCATS), 2006).
# The list shows a part of the results. These are further read-outs of the screen, such as a control signal, another cell line or another target. No call is given for them. Most of these compounds were active or inconclusive in the main read-out, so they are no random draw. The note in brackets gives the kind of curve behind each potency; many fits are weak.
# Assay: IkB Signaling
# Conditions: ABC-DLBCL IkBa-CBG/CBR dual luciferase ratio (green luciferase fused to IkBa over red control in OCI-Ly3 lymphoma cells), 4 h
# Procedure, shortened: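 In this assay, an IκBα–CBG68 fusion accumulates when IKK-driven degradation is blocked; native CBR normalizes for cell number. OCI-Ly3 cells were treated 4 h with compound and doxycycline, then green and red light read after Chroma-Glo addition.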
# [1] = measured here: control luc red channel unless noted
# [2] = measured here: IkB-luc green channel
# [3] = measured here: control luc red channel
smiles,measurement,setting,value
O=C(Cc1ccc(Cl)cc1)Nc1nnc2n1CCS2,AC50,[1],"0.316 µM [falling, full curve, poor fit]"
COc1ccc(NC(=O)c2cc3ccccn3n2)cc1,AC50,[1],"7.94 µM [falling, partial curve]"
CCOc1ccc(N(C)C(=O)C2CCN(S(=O)(=O)c3ccc4c(c3)CCCN4C(C)=O)CC2)cc1,AC50,[1],"39.8 µM [falling, single point]"
CCC(Sc1nc2ccncc2[nH]1)C(=O)Nc1ccc(F)cc1 (stereo not drawn),AC50,[1],"3.16 µM [falling, full curve]"
O=C(OCC(=O)N1CCN(C(=O)c2ccco2)CC1)c1cn(-c2ccccc2)nc1-c1ccccc1,AC50,[1],"31.6 µM [falling, single point]"
Cc1cc(C)cc(NC(=O)C(NS(=O)(=O)c2cccc3nsnc23)c2ccccc2)c1 (stereo not drawn),AC50,[1],"25.1 µM [falling, partial curve]"
Cc1ccc(Cn2cnc3c(oc4ccccc43)c2=O)cc1,AC50,[1],"1 µM [rising, single point]"
OC[C@@H]1O[C@@H](n2cnc3c(NC4CCCC4)ncnc32)[C@H](O)[C@H]1O,AC50,[1],"39.8 µM [falling, single point]"
COc1ccc2nc(NC(=O)c3ccoc3C)sc2c1,AC50,[1],"2.51 µM [falling, full curve]"
CCOC(=O)N1CCN(C(=O)c2ccc3c(c2)N(Cc2cc(C)ccc2C)C(=O)c2ccccc2S3=O)CC1 (stereo not drawn),AC50,[1],"15.8 µM [falling, partial curve]"
CC(=O)Nc1cccc(C(=O)Nc2ccccc2C(=O)O)c1,AC50,[1],"7.94 µM [falling, partial curve]"
CCCCOc1nnc(-c2ccc(OCC)cc2)c2ccccc12,AC50,[1],"31.6 µM [falling, partial curve]"
O=C1SC(Nc2ccc(Cl)cc2)C(=O)N1Cc1ccccc1 (stereo not drawn),AC50,[1],"3.16 µM [rising, partial curve] [measured here: IkB-luc green channel]"
CCCc1cc(=O)n2[nH]c(NCc3ccc(CC)cc3)nc2n1,AC50,[1],"15.8 µM [falling, partial curve]"
O=C1c2[nH]nc(-c3ccccc3)c2C(c2ccccc2)N1c1cccc(C(F)(F)F)c1 (stereo not drawn),AC50,[1],"15.8 µM [falling, partial curve]"
Cc1ccc(C(=O)CSc2nc(C)cc(SCc3nnc(-c4ccccc4)o3)n2)cc1,AC50,[1],"0.126 µM [falling, full curve]"
Cc1c(Cl)cccc1Nc1nc(N)nc(CSc2nc3ccccc3s2)n1,AC50,[1],"1 µM [rising, partial curve]"
Cc1ccc2oc(C(=O)Nc3ccc(S(=O)(=O)Nc4onc(C)c4C)cc3)cc(=O)c2c1,AC50,[1],"10 µM [falling, single point]"
CCc1ccc(CNc2ccc(O)cc2)cc1,AC50,[2],"20 µM [rising, partial curve]"
same,AC50,[3],"20 µM [falling, partial curve, poor fit]"
Cc1ccc(NC(=O)CCCn2c3ccccc3c(=O)c3cc(C)ccc32)c(Br)c1,AC50,[1],"7.94 µM [falling, partial curve]"
CC1CCN(S(=O)(=O)c2ccc3c(c2)N(CC(=O)NCCc2ccc(Cl)cc2)C(=O)CO3)CC1,AC50,[1],"12.6 µM [falling, partial curve]"
CCOC(=O)c1c(C)[nH]c(C)c1S(=O)(=O)N1CCC(C(=O)N2CCN(c3cc(C)ccc3C)CC2)CC1,AC50,[1],"0.126 µM [falling, full curve, poor fit]"
O=C(CSc1ncc(S(=O)(=O)c2ccc(Cl)cc2)c(=O)[nH]1)Nc1ccc2c(c1)OCCO2,AC50,[1],"15.8 µM [falling, partial curve]"
CCCC(=O)Nc1nnc(SCc2cc(=O)c3ccc(C)cc3[nH]2)s1,AC50,[1],"25.1 µM [falling, single point]"
COC(=O)c1cc(N2C(=O)C3C(C2=O)C2(C)C=CC3(C)O2)ccc1Cl (stereo not drawn),AC50,[2],"5.01 µM [falling, full curve]"
same,AC50,[3],"3.16 µM [falling, full curve]"
O=C(c1ccc(S(=O)(=O)NCC2CCCO2)cc1)N1CCc2ccccc21 (stereo not drawn),AC50,[1],"10 µM [falling, partial curve]"
Nc1c(C(=O)NCc2ccc3c(c2)OCO3)c2nc3ccccc3nc2n1CCCN1CCOCC1,AC50,[1],"12.6 µM [falling, partial curve]"
Cc1ccc(C2CC(C(F)F)n3ncc(C(=O)Nc4cnn(Cc5ccccc5C)c4)c3N2)cc1 (stereo not drawn),AC50,[1],"12.6 µM [falling, partial curve]"
COc1ccc(-c2nc3ccc(NS(=O)(=O)c4ccccc4)cc3o2)cc1,AC50,[1],"39.8 µM [falling, single point]"
C=CCC(=O)OCC(=O)Nc1ccc(Oc2ccccc2)cc1,AC50,[1],"12.6 µM [falling, partial curve]"
Cc1cccc(-c2nnc3n(CCc4ccccc4)c(=O)c4ccccc4n23)c1,AC50,[1],"20 µM [falling, single point]"
Cc1ccc(NC(=O)c2sc(-n3nc(C)c(Cc4ccc(Cl)cc4)c3C)nc2C)cc1,AC50,[1],"12.6 µM [falling, partial curve]"
Cc1ccc(C)c(NC(=O)N2CCN(C)c3ncccc32)c1,AC50,[1],"7.94 µM [rising, single point]"
Oc1ccc(O)cc1,AC50,[1],"5.01 µM [falling, partial curve, poor fit] [measured here: IkB-luc green channel]"
CCN(Cc1ccccc1)C(=O)Cn1c(=O)n(-c2ccc(OC)cc2OC)c(=O)c2c(C)c(C)sc21,AC50,[1],"31.6 µM [falling, single point]"
CCCCn1c2ccccc2c2nnc(SCC(=O)Nc3ccc(NC(C)=O)cc3)nc21,AC50,[1],"0.00794 µM [rising, full curve, poor fit]"
O=C(O)CCCC(=O)Nc1nc(-c2ccccc2)cs1,AC50,[1],"0.316 µM [falling, full curve]"
COc1ccc(-c2noc(CSc3nnc(Cc4ccccc4)n3-c3cccc(C)c3)n2)cc1OC,AC50,[1],"15.8 µM [falling, partial curve]"
Cc1oc2ccc(O)c(CN(C)Cc3ccccc3)c2c1C(=O)Nc1cccc(Cl)c1C,AC50,[1],"7.94 µM [falling, partial curve]"
O=C(Nc1onc2c1CCCC2)c1ccc(Cl)cc1,AC50,[1],"0.251 µM [rising, full curve]"
CCc1nc2nc(C)cc(Nc3ccc(Br)cc3F)n2n1,AC50,[1],"31.6 µM [falling, single point]"
CCOC(=O)N1CCN(c2ccc(C(=O)c3cccc(F)c3)cc2)CC1,AC50,[1],"12.6 µM [falling, partial curve]"
Cc1ccccc1NC(=O)c1c2c(nc3ccccc13)C(=O)N(C1CCCCC1)C2,AC50,[1],"10 µM [falling, partial curve]"
CC1(C)Cc2c(sc3ncnc(N)c23)CO1,AC50,[1],"25.1 µM [falling, single point] [measured here: IkB-luc green channel]"
COc1ccccc1-c1cc(C(F)(F)F)nc(S(=O)(=O)CCCC(=O)Nc2cc(C)ccc2O)n1,AC50,[1],"3.16 µM [falling, partial curve]"
Cc1ccc2c(=O)c(C(=O)c3ccc(F)cc3)cn(CC(=O)NC3CCCCC3)c2n1,AC50,[1],"25.1 µM [falling, single point]"
COc1cccc(OCCSc2nc(C)c(Cc3ccccc3)c(=O)[nH]2)c1,AC50,[1],"10 µM [falling, partial curve]"
Cc1ccc(N(C)C(=O)C2CCN(S(=O)(=O)c3c(C)noc3/C=C/c3c(C)cc(C)cc3C)CC2)cc1,AC50,[1],"12.6 µM [falling, partial curve]"
COc1ccc(NC(=O)CCCN2C(=O)CCn3nc(-c4cn(C)c5ccccc45)cc32)cc1OC,AC50,[1],"25.1 µM [falling, partial curve]"
Cc1cccc(N2CCN(S(=O)(=O)c3ccc4[nH]c5c(c4c3)CCCCC5)CC2)c1C,AC50,[1],"10 µM [falling, partial curve]"
O=C(c1cc(-c2ccco2)on1)N1CCN(C(c2ccccc2)c2ccccc2)CC1,AC50,[1],"12.6 µM [falling, partial curve]"
CCN(CC)C(=O)Cn1nnc2sc(-c3ccccc3)cc2c1=O,AC50,[1],"39.8 µM [falling, single point]"
Cc1ccc(CN2CCSc3ccc(C(=O)NCC(C)c4ccccc4)cc32)cc1 (stereo not drawn),AC50,[1],"10 µM [falling, partial curve]"
CC(C)(C)N1C(=O)Cc2c1nc(N)c1c(N)nc(N3CCCCC3CO)c(C#N)c21 (stereo not drawn),AC50,[1],"15.8 µM [rising, partial curve] [measured here: IkB-luc green channel]"
Cc1ccc(NC(=O)C(C)n2nnc3sc4c(c3c2=O)CCCC4)cc1Cl (stereo not drawn),AC50,[1],"12.6 µM [falling, partial curve]"
Oc1ccc(NCc2ccccc2OCc2ccccc2F)cc1,AC50,[1],"15.8 µM [falling, partial curve]"
CC(=O)c1ccc(NC(=O)CCCSc2nc(-c3ccco3)cc(C(F)(F)F)n2)cc1,AC50,[1],"25.1 µM [falling, single point]"
CCOC(=O)c1cccc(Nc2cc(-c3ccccc3)ncn2)c1,AC50,[1],"20 µM [falling, single point]"
Cc1cccc(N(CC(=O)NCc2ccccc2)C(=O)Cn2nnc(-c3ccc(C)o3)n2)c1,AC50,[1],"31.6 µM [falling, partial curve]"
CCOC(=O)c1c(C)[nH]c(CCC(=O)NCc2ccccc2Cl)c1C,AC50,[1],"25.1 µM [falling, single point]"
CC(=O)c1ccc(Nc2cc(C)nc3nc(Cc4ccc(Cl)cc4)nn23)cc1,AC50,[1],"31.6 µM [falling, partial curve, poor fit]"

# Reprinted at random: 3 records from the list.
smiles,measurement,setting,value
Cc1ccc(C(=O)CSc2nc(C)cc(SCc3nnc(-c4ccccc4)o3)n2)cc1,AC50,[1],"0.126 µM [falling, full curve]"
COc1ccc(-c2nc3ccc(NS(=O)(=O)c4ccccc4)cc3o2)cc1,AC50,[1],"39.8 µM [falling, single point]"
CCc1ccc(CNc2ccc(O)cc2)cc1,AC50,[2],"20 µM [rising, partial curve]"

# Given with bars between the fields: part of the list above
smiles | measurement | setting | value
Cc1ccc(N(C)C(=O)C2CCN(S(=O)(=O)c3c(C)noc3/C=C/c3c(C)cc(C)cc3C)CC2)cc1 | AC50 | [1] | 12.6 µM [falling, partial curve]
COc1ccc(NC(=O)CCCN2C(=O)CCn3nc(-c4cn(C)c5ccccc45)cc32)cc1OC | AC50 | [1] | 25.1 µM [falling, partial curve]
